The numbers were not newly measured in US9301963B2, “Treatment tool and method of gradual withdrawal from bezodiazepine dependency” (priority 2011, dated 2016), which cites them from elsewhere.

This data set concerns CYP 450 enzymes. As to conditions: cited from earlier work.

The structures appear in SMILES notation.

Take `CN1C(=O)CN=C(c2ccccc2)c2cc(Cl)ccc21` [Diazepam]: the metabolites entry was “one inactive metabolite and two active metabolites”. `CN1C(=O)C(O)N=C(c2ccccc2)c2cc(Cl)ccc21` (centres unmarked) [Temazepam]: the “metabolism by CYP 450 enzyme pathways” value was “not metabolized by the CYP 450 enzyme pathways”.
